{"source": "patent US5648336A", "about": "(University of Colorado, priority 1994, dated 1997)", "assay": "general procedure: Boc solid-phase peptide synthesis; BOP (HATU for hindered Boc-MPIV)", "conditions": "whole synthesis", "data": [{"substance": "DArg-Arg-Pro-Hyp-Gly-Iglb-Ser-DIglb-M PIV-Arg", "values": [{"measurement": "difficulty met", "value": "the Boc-MPIV failed to couple to the Arg-resin when activated by BOP"}]}]}
